Experimental data reported in the supplement of paper PMC8728848.
The other results are listed elsewhere or left out.

Assays:
Assay in all cases: glycan array binding signal (z-score within array); higher = stronger binding
Details in all cases: glycan notation: IUPAC condensed, linker removed
[1] = biological target: GlcNAc(b1-3)Gal(b1-4)GlcNAc(b1-3)Gal(b1-4)GlcNAc(b1-3)Gal(b1-4)GlcNAc(b1-3)Gal(b1-4)GlcNAc(b1-2)[GlcNAc(b1-3)Gal(b1-4)GlcNAc(b1-3)Gal(b1-4)GlcNAc(b1-3)Gal(b1-4)GlcNAc(b1-3)Gal(b1-4)GlcNAc(b1-6)]Man(a1-6)[GlcNAc(b1-3)Gal(b1-4)GlcNAc(b1-3)Gal(b1-4)GlcNAc(b1-3)Gal(b1-4)GlcNAc(b1-3)Gal(b1-4)GlcNAc(b1-2)Man(a1-3)]Man(b1-4)GlcNAc(b1-4)[Fuc(a1-6)]GlcNAc
In short: (§1)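 Glycan array binding is given as a within-array Z-score, which can be read as non-binding when negative. The arrays, 3228 of them, came from the Consortium for Functional Glycomics database and were retained only where the protein sequence was available. Z-scores were averaged across arrays of the same protein sequence at different concentrations or buffers and across linkers.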

[2] = biological target: GlcNAc(b1-3)Gal(b1-4)GlcNAc(b1-3)Gal(b1-4)GlcNAc(b1-3)GalNAc
In short: as §1

[3] = biological target: GlcNAc(b1-3)Gal(b1-4)GlcNAc(b1-3)GalNAc
In short: as §1

[4] = biological target: GlcNAc(b1-3)Gal(b1-4)GlcNAc(b1-3)[GlcNAc(b1-3)Gal(b1-4)GlcNAc(b1-3)]GalNAc
In short: as §1

[5] = biological target: GlcNAc(b1-3)Gal(b1-4)GlcNAc(b1-6)[Gal(b1-3)]GalNAc
In short: as §1

[6] = biological target: GlcNAc(b1-3)Gal(b1-4)GlcNAc(b1-6)[GlcNAc(b1-3)Gal(b1-3)]GalNAc
In short: as §1

[7] = biological target: GlcNAc(b1-3)Gal(b1-4)GlcNAc(b1-6)[GlcNAc(b1-3)]Gal(b1-4)GlcNAc
In short: as §1

[8] = biological target: GlcNAc(b1-3)GalNAc
In short: as §1

[9] = biological target: GlcNAc(b1-3)Man
In short: as §1

[10] = biological target: GlcNAc(b1-3)[GlcNAc(b1-4)][GlcNAc(b1-6)]GlcNAc
In short: as §1

[11] = biological target: GlcNAc(b1-3)[GlcNAc(b1-6)]Gal(b1-4)GlcNAc
In short: as §1

[12] = biological target: GlcNAc(b1-3)[GlcNAc(b1-6)]GalNAc
In short: as §1

[13] = biological target: GlcNAc(b1-4)Gal(b1-4)GlcNAc
In short: as §1

[14] = biological target: GlcNAc(b1-4)GlcNAc
In short: as §1

[15] = biological target: GlcNAc(b1-4)GlcNAc(b1-4)GlcNAc
In short: as §1

[16] = biological target: GlcNAc(b1-4)GlcNAc(b1-4)GlcNAc(b1-4)GlcNAc(b1-4)GlcNAc
In short: as §1

[17] = biological target: GlcNAc(b1-4)GlcNAc(b1-4)GlcNAc(b1-4)GlcNAc(b1-4)GlcNAc(b1-4)GlcNAc
In short: as §1

[18] = biological target: GlcNAc(b1-4)[GlcNAc(b1-6)]GalNAc
In short: as §1

[19] = biological target: GlcNAc(b1-6)Gal(b1-4)GlcNAc
In short: as §1

[20] = biological target: GlcNAc(b1-6)GalNAc
In short: as §1

[21] = biological target: GlcNAc6S(b1-3)Gal(b1-4)GlcNAc
In short: as §1

[22] = biological target: Kdn(a2-3)Gal(b1-3)GalNAc
In short: as §1

[23] = biological target: Kdn(a2-3)Gal(b1-3)GlcNAc
In short: as §1

[24] = biological target: Kdn(a2-3)Gal(b1-4)Glc
In short: as §1

[25] = biological target: Kdn(a2-3)Gal(b1-4)GlcNAc
In short: as §1

[26] = biological target: Kdn(a2-3)Gal(b1-4)[Fuc(a1-3)]GlcNAc
In short: as §1

[27] = biological target: Kdn(a2-6)Gal(b1-4)GlcNAc
In short: as §1

[28] = biological target: Man(a1-2)Man(a1-2)Man(a1-3)Man
In short: as §1

[29] = biological target: Man(a1-2)Man(a1-2)Man(a1-6)[Man(a1-3)]Man
In short: as §1

[30] = biological target: Man(a1-2)Man(a1-3)Man
In short: as §1

B1: CcfD (Bacteroides fragilis), Q5L9G4 (protein)
chain: MKKQNSIYTLLIALLCFVSSCDYLGVSDQLAGGLQNTEQVFDNVSYTKRWYANVFAGIPDYSGINSVNVGAFKNPWTGMCDELVVGYGNSSKYNNSDRNAANMGFHRYGDCYKYIRQANIFLQKAHPIMTTGTQGDQLLEDELTQMKANVRFMRAFYHYLLFEQYGPIILVKDKIYNATEDQDVPRNTVDEVIEYIDSELTAVASELTQEPIFEDKDYRAWPTKGVALAVRAKLWLYAASPLLNGGYREALSVTNPDGTRLFPDYDAGKWEKALAACKDFIDYAEAGRYELYKEYKDDNGAVIDPDKSVYNLFQKYTHEIIWATANNDWGGMNGDAFDRRIAPRCEKNGLGSTGVTQELVDAFYMKDGFPVSATAYLPQSTLYQEEGYGTYKDQNDNFSKKYTNVTVSNRYLNREPRFYNTVFFNGRQWPVSCNQVLFYNGGNSGVQEGQATLTGYMLFKRFNRSVSLTNPGVASQFRPSIIFRLADFYLMYAEAANEVNPNDARVLKYLNLVRERAGLPDIETLNPAIRGNQELQRAAIQRERQIELATEGQRYFDVRRWMIADKNGEGRQNGYVHGMNVRGESNDKEDFNRIVEASQIVFNRKMYLYPMPDSEMRKTKNLVQNPGW
- glycan array binding signal (z-score) [1]: 6.49
- glycan array binding signal (z-score) [2]: -1.17
- glycan array binding signal (z-score) [3]: 0.345
- glycan array binding signal (z-score) [4]: 0.246
- glycan array binding signal (z-score) [5]: -0.2
- glycan array binding signal (z-score) [6]: 0.502
- glycan array binding signal (z-score) [7]: 0.069
- glycan array binding signal (z-score) [8]: -0.65
- glycan array binding signal (z-score) [9]: -0.614
- glycan array binding signal (z-score) [10]: 2.83
- glycan array binding signal (z-score) [11]: -1.27
- glycan array binding signal (z-score) [12]: -0.578
- glycan array binding signal (z-score) [13]: -1
- glycan array binding signal (z-score) [14]: -0.502
- glycan array binding signal (z-score) [15]: -0.581
- glycan array binding signal (z-score) [16]: 2.49
- glycan array binding signal (z-score) [17]: -0.877
- glycan array binding signal (z-score) [18]: -0.535
- glycan array binding signal (z-score) [19]: -0.135
- glycan array binding signal (z-score) [20]: 0.785
- glycan array binding signal (z-score) [21]: -0.516
- glycan array binding signal (z-score) [22]: 0.318
- glycan array binding signal (z-score) [23]: -0.653
- glycan array binding signal (z-score) [24]: 1.85
- glycan array binding signal (z-score) [25]: -0.43
- glycan array binding signal (z-score) [26]: -0.601
- glycan array binding signal (z-score) [27]: 1.21
- glycan array binding signal (z-score) [28]: -0.194
- glycan array binding signal (z-score) [29]: -0.273
- glycan array binding signal (z-score) [30]: -0.791
